# Test results taken from publication PMC10570036, “Yeast transcription factor Msn2 binds to G4 DNA”.
# For some assays here: A negative result means that nothing was seen under these conditions. Protein sequences can lack the tags named with them. For some assays here: Results from cells or extracts need not show a direct contact. For some assays here: The exact form of at least one protein or probe is not confirmed. For some assays here: Weaker means in comparison with the reference protein, sequence or condition of that experiment. For some assays here: At least one verdict was read from the data and is not stated in words by the source.
# How the values were obtained:
# [1] = biological target: T1, Msn2-13Myc (Saccharomyces cerevisiae (YPH45-derived)) (UniProt P33748); test: pull-down; conditions: pull-down: 400 pmol biotin oligo folded in 100 mM KCl or LiCl, streptavidin beads, yeast whole cell lysate, protein in an extract, residues 1-704, protein details: C-terminal 8xGly-13Myc
# T1 sequence (looked up): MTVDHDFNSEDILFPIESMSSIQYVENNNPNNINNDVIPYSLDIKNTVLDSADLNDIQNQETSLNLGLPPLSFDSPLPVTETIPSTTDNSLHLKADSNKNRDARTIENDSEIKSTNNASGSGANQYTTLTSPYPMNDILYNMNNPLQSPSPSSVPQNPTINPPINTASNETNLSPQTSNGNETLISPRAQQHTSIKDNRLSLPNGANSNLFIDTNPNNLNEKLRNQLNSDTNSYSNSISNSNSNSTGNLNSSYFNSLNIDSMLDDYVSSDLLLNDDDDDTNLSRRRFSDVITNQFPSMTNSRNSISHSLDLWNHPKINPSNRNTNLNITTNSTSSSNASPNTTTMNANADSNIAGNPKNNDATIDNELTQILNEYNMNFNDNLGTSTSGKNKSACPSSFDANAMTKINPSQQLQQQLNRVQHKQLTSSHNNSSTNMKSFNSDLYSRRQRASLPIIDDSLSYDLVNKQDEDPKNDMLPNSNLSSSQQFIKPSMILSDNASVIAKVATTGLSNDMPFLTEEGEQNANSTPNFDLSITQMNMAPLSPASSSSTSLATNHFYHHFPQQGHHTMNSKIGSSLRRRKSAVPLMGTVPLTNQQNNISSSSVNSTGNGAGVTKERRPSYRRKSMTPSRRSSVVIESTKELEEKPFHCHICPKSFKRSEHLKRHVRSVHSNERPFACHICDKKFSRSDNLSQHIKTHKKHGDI
# [2] = biological target: T2, Sub1-3xFlag (Saccharomyces cerevisiae (YPH45-derived)) (UniProt P54000); test: pull-down; conditions: pull-down: 400 pmol biotin oligo folded in 100 mM KCl or LiCl, streptavidin beads, yeast whole cell lysate, protein in an extract, protein details: 3xFlag, label: 3' biotin-TEG on C-run strand
# T2 sequence (looked up, limits assumed): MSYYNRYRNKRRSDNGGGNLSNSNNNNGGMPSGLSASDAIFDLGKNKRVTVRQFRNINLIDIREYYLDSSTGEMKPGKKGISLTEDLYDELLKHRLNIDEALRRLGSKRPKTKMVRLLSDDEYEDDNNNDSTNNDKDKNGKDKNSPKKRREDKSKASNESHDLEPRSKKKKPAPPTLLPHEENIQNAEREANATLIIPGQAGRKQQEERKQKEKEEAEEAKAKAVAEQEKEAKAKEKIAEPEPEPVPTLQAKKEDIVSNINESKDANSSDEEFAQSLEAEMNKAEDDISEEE
# [3] = biological target: T3, GST-Msn2(596-704) zinc-finger domain (Saccharomyces cerevisiae) (UniProt P33748); test: EMSA; conditions: folded in 100 mM Li+; EMSA: oligos (0.1 uM) folded in 10 mM Tris-HCl pH 7.5, 100 mM KCl or LiCl; binding in 10 mM Tris-HCl pH 8.0, 1 mM DTT, 0.01% NP-40, 5% glycerol, 50 uM ZnSO4; recombinant protein; residues 596-704; protein details: N-terminal GST (pGEX4T1); label: 5' Cy5; folded or branched DNA
# T3 sequence (looked up): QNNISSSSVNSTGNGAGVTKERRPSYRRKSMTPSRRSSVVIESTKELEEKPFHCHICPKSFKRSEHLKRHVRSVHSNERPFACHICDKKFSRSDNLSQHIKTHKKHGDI
# [4] = label: 3' biotin-TEG, folded or branched DNA
# [5] = label: 3' biotin-TEG, single-stranded DNA
sequence,measurement,setting,value
AAAGGGGGCACAATGGGTGAGTTGTCGGGTAAGGGAAT [ATG20pG4],binding result,[1]; [4],binds
ACCGGGGGCACACCGGGGTAGGGGGTCCGGAGGGTTA [ATG39pG4 (pull-down)],binding result,[1]; [4],binds
CCCCTCCCTCGCGCCCGCCC [c-KIT2C-run],binding result,[1]; [5],no binding
CTGATAGATGTCACCCCGCTGGGCAGGTCAGGGCAGGGGCTCTCAGGGGGGCGCCATGGACAAACTGCACT (double strand) [dsTPS1pG4 (long)],binding result,"[1]; folded in 100 mM K+, binding increases with K+, label: 3' biotin-TEG on C-run strand",binds
same,binding result,"[1]; folded in 100 mM Li+, label: 3' biotin-TEG on C-run strand",binds more weakly
same,binding result,[2]; folded in 100 mM K+,binds
same,binding result,[2]; folded in 100 mM Li+,binds more weakly
GAAGGGAGATAGGAAGGGGCGGGGGTCCGGGCAG [TSL1pG4],binding result,[1]; [4],binds
GAGCGAGCGCGAGAGAGGGG [c-KIT2G4Mut],binding result,[1]; [5],no binding
GCGCCCCCCTGAGAGCCCCTGCCCTGACCTGCCCAGC [ssTPS1pC-run],binding result,[1]; [5],no binding
GCTGAGCAGATCAGAGCAGGGGCTCTCAGGGGAACGC [ssTPS1pG4Mut],binding result,[1]; [5],no binding
GCTGGGCAGGTCAGGGCAGGGGCTCTCAGGGGGGCGC [ssTPS1pG4],binding result,"[1]; folded in 100 mM K+, label: 3' biotin-TEG, folded or branched DNA",binds
same,binding result,"[1]; folded in 100 mM Li+, label: 3' biotin-TEG, folded or branched DNA",binds more weakly
GCTGGGCAGGTCAGGGCCGGGGCTCTCCGGGGGGCGC [TPS1pG4-STREMut (AGGGG to CGGGG; name line missing)],binding result,[1]; [4],binds
GCTGGGCAGGTCAGGGCGGGGGCTCTCGGGGGGGCGC [TPS1pG4-STREMut (AGGGG to GGGGG; name line missing)],binding result,[1]; [4],binds
GCTGGGCAGGTCAGGGCTGGGGCTCTCTGGGGGGCGC [TPS1pG4-STREMut1],binding result,[1]; [4],binds
GGGACCGGGCCGAGCCGGGGGAAGGG [rPEX5G4-1801],binding result,[1]; [4],binds
GGGCGGGCGCGAGGGAGGGA [c-KIT2STREMut],binding result,[1]; [4],binds
GGGCGGGCGCGAGGGAGGGG [c-KIT2G4],binding result,[1]; [4],binds
GGGGAGATGGGCGGTGGGGAGCGCGGG [rPEX5G4-1773],binding result,[1]; [4],binds
GGGGCGCGGGGCGCGGGGCACGGGG [rPEX5G4-833],binding result,[1]; [4],binds
GGGGCGGGGTCGGGGCTGGGG [rPEX5G4-801],binding result,[1]; [4],binds
TGGGTGTTGTTGGGGGAGGGAAATGGGT [Cy5-BRCA1-G3],binding result,[3],no binding
